Measured values published in article doi:10.1101/325282.
These are yes or no findings as the source states them, for the method shown. For some of these results: Binding seen in cells or lysates may run through a third protein. Some results given as binding are weak or reduced against the parent protein; the word gives no strength. Values belong to the molecule of their own block, whether it stands above or below them.

The chains behind the UniProt entries cited, without tags or fusion partners.
UniProt Q96EQ9: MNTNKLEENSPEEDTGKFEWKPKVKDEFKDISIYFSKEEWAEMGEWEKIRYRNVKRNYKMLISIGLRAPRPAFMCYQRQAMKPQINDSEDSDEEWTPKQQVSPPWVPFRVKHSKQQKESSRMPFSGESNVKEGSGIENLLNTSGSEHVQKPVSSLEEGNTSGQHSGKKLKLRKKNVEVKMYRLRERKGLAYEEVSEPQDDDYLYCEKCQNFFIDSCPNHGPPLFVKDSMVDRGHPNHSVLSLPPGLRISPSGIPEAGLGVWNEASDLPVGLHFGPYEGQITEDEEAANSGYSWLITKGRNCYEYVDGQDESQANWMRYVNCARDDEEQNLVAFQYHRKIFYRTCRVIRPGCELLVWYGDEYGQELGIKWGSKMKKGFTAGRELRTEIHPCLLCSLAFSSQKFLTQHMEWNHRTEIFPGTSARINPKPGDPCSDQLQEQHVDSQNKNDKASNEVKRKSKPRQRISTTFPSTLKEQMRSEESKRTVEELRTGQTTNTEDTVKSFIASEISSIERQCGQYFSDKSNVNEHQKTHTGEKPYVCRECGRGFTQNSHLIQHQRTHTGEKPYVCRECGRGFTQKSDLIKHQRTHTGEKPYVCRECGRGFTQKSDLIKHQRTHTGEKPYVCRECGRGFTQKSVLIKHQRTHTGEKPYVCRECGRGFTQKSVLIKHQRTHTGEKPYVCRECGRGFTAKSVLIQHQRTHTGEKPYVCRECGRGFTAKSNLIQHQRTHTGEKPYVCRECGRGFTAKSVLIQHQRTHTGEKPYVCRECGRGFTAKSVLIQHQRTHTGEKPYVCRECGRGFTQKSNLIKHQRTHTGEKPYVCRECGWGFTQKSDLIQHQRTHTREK

Columns and labels:
[1] = molecular target: full-length PRDM9, recombinant (6HisHALO-MBP-PRDM9 and MBP-PRDM9) (UniProt Q96EQ9); test: pull-down
[2] = molecular target: T1, Ewing sarcoma RNA binding protein 1 (EWSR1) (mouse (endogenous in testis)), Q61545; test: co-IP; conditions: remark: other sources report otherwise
T1 chain: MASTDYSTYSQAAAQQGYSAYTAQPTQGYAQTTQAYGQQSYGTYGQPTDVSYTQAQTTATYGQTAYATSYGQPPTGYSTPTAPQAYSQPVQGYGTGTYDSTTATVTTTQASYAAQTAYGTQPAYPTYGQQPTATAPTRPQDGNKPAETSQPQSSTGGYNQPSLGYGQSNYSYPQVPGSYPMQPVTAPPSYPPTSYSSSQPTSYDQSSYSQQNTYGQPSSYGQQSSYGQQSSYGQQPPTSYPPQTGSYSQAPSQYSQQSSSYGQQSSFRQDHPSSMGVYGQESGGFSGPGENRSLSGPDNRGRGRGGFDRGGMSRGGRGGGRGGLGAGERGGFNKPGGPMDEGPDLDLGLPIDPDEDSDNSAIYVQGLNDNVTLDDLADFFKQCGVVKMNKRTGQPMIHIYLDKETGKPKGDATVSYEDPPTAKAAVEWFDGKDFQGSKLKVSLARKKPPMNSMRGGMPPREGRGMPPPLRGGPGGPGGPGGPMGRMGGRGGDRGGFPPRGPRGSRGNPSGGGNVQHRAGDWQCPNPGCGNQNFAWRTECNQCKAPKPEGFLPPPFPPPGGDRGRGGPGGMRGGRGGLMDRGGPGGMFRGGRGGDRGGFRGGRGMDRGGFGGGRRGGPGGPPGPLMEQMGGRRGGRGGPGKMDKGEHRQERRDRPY

[3] = molecular target: Ewing sarcoma RNA binding protein 1 (EWSR1) (mouse (endogenous in testis)) (UniProt Q61545); test: co-IP

B1: SYCP3, synaptonemal complex protein, P70281 1-254 (protein)
chain: MLRGCGDSDSSPEPLSKHLKMVPGGRKHSGKSGKPPLVDQPKKAFDFEKDDKDLSGSEEDVADEKAPVIDKHGKKRSAGIIEDVGGEVQNMLEKFGADINKALLAKRKRIEMYTKASFKASNQKIEQIWKTQQEEIQKLNNEYSQQFMNVLQQWELDIQKFEEQGEKLSNLFRQQQKIFQQSRIVQSQRMFAMKQIHEQFIKSLEDVEKNNDNLFTGTQSELKKEMAMLQKKVMMETQQQEMANVRKSLQSMLF
binding [2]: no binding

B2: SYCP1, synaptonemal complex protein, Q62209 1-993 (protein)
chain: MEKQKPFTLFVPPRLSSSQVSAVKPQTAGGDSNYFKTANKCTEGDFGVPFTMSSRENIDKDPAFQKLSILPMLEQVANSGSCHYQEGVNDSDFENSEPMSRLYSKLYKEAEKIKKWKVSIESELKQKENKLQENRKIIEAQRKAIQELQFENEKVSLKLEEEIQENKDLIKENNATIHWCNLLKETCARSAEKTNKYEYEREETRQVYVDLNSNIEKMILAFEELRVQAENARLEMHFKLKEDHEKIQHLEEEYQKEVNNKENQVSELLIQSAEKENKMKDLTFLLEESRDKANQLEEKTKLQDENLKELSEKKDHLTSELEDIKMSMQRSMSTQKALEEDLQIATKTISQLTEVKEAQMEELNKAKTTHSFVVTELKATTCTLEELLRTEQQRLEKNEDQLKLITVELQKKSNELEEMTKFKNNKEVELEELKNILAEDQKLLDEKKQVEKLAEELQEKEQELTFLLETREKEVHDLQEQVTVTKTSEQHYLKQVEEMKTELEKEKLKNTELTASCDMLLLENKKFVQEASDMALELKKHQEDIINCKKQEERLLKQIENLEEKEMHLRDELESVRKEFIQQGDEVKCKLDKSEENARSIECEVLKKEKQMKILESKCNNLKKQVENKSKNIEELHQENKTLKKKSSAEIKQLNAYEIKVSKLELELESTKQRFEEMTNNYQKEIENKKISEGKLLGEVEKAKATVDEAVKLQKEIDLRCQHKIAEMVALMEKHKHQYDKIVEERDSELGLYKNREQEQSSAKIALETELSNIRNELVSLKKQLEIEKEEKEKLKMAKENTAILKDKKDKKIQASLLESPEATSWKFDSKTTPSQNISRLSSSMDSGKSKDNRDNLRASAKSILPTTVTKEYTVKTPTKKSIYQRENKYIPTGGSNKKRKTAFEFDVNSDSSETADLLSLVSEEDVSNRLYDNNPPDSHLLVKTPKQTPLSLSTPASFMKFGSLKKMREDRWTTIAKIDRKRRLKEAEKLFS
binding [2]: no binding

The next lines start with the values.

binding [1]: binds
Molecule: full-length PRDM9, recombinant (6HisHALO-MBP-PRDM9 and MBP-PRDM9) (from UniProt Q96EQ9 1-843)

binding [3]: binds
B3: pREC8, phosphorylated meiosis-specific cohesin REC8 (protein, UniProt Q8C5S7 1-591)
chain: MFYYPNVLQRHTGCFATIWLAATRGSRLVKREYLNVNVVKTCEEILNYVLVRVQPPVAGLPRPRFSLYLSAQLQIGVIRVYFQQCQYLVEDIQHILEHLHRAQLRIRIDMEEADLPSLLLPNCLAMMETLEDAPEPFFGKMSVDPRLPSPFDIPQIRHLLEAATPEKTRKETLPEATPDPRKPDRTLATVQSPEVITLQEAEPIRMLQIEGEQDLPEISRGDLELLIAEKDDAILLEERQRGRLLRQRRASLPLDESREEPRALEGAGLVSALSPPAPAQVEGIQEALPGQVFPPEVQKMTGWEPGALLTEVTPPQELRLPAPPSTEKRLPSLQRPLPRRHRRRQLLFWDKETQISREKFEEQLQTGAHCWEYPVAQPPKRMLTSPAELFRTPTLSGWLPPELLGLWTHCAQVPQRMLRQRPQLETEETVEEERAADEEERRKTEALSEIEVLREAQEPSGPLMLSSELSLEAAEDEKSRTSLIPPEWWAWSEEGQPEPPALPMLPELPEVPMEMPPRPELSSEAVLRAVALKLQANKELDFSSLVPPLSPRKLASRVFYLLLVLSTQKILLVEQQKPYGPLLIRPGPKFP
modifications: phosphorylated (sites not given)
